According to patent publication EP4389156A1, “RA[…] LIGAND COMPOUNDS AND PRECURSORS THEREOF” (Technische Universität München, priority 2022, dated 2024):
At least one structure is not confirmed: it was looked up by name or label, or the drawing left a doubt.

Each molecule was assayed on human plasma proteins (assay: Binding to human plasma (PPB), ultrafiltration). Settings: 2 nM, 37 °C for 30 min, n = 6, mean ± SD.
Format: in vitro ADME

Compound | PPB (%)
CC(C)(C)[Si](O)(c1ccc(C(=O)NC[C@@H](NC(=O)[C@@H](CCC(=O)O)NC(=O)C(CNCCN)CNCCN)C(=O)N[C@H](CCCCNC(=O)CCC(=O)NCCC[C@@H](NC(=O)CC[C@H](NC(=O)N[C@@H](CCC(=O)O)C(=O)O)C(=O)O)C(=O)O)C(=O)O)cc1)C(C)(C)C.[O]=[99Tc+]=[O] [[^99mTc]Tc-N4-PSMA-12] | 55.1 ± 2.5%
CC(C)(C)[Si](O)(c1ccc(C(=O)NC[C@@H](NC(=O)[C@@H](Cc2ccccc2)NC(=O)C(CNCCN)CNCCN)C(=O)N[C@H](CCCCNC(=O)CCC(=O)NCCC[C@@H](NC(=O)CC[C@H](NC(=O)N[C@@H](CCC(=O)O)C(=O)O)C(=O)O)C(=O)O)C(=O)O)cc1)C(C)(C)C.[O]=[99Tc+]=[O] [[^99mTc]Tc-N4-PSMA-13] | 88.5 ± 1.5%
CC(C)(C)[Si](O)(c1ccc(C(=O)NC[C@@H](NC(=O)[C@@H](Cc2ccc(N)cc2)NC(=O)C(CNCCN)CNCCN)C(=O)N[C@H](CCCCNC(=O)CCC(=O)NCCC[C@@H](NC(=O)CC[C@H](NC(=O)N[C@@H](CCC(=O)O)C(=O)O)C(=O)O)C(=O)O)C(=O)O)cc1)C(C)(C)C.[O]=[99Tc+]=[O] [[^99mTc]Tc-N4-PSMA-21] | 66.0 ± 2.3%
